From PubChem BioAssay AID248 (DTP/NCI, 2004)
Inconclusive results and toxic doses are left out. Cut-off read from the data, not from the text of the source: active = T/C of 150% or more; inactive = T/C below 125%.

System: L1210 leukemia ip in BDF1 mice, survival T/C
Assay: NCI In Vivo Anticancer Drug Screen. Data for tumor model L1210 Leukemia (intraperitoneal) in B6D2F1 (BDF1) mice
Conditions: endpoint: mean survival time, higher = longer survival
Summary of the method: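 Mice bearing the transplanted tumor received compound or vehicle. Survival of the treated group was divided by that of the vehicle-treated control group to give the ratio.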

Measured: T/C

CCCC(NC(=O)OC(C)(C)C)C(=O)O (stereo unspecified)
inactive: dose: 75.0 mg/kg/injection, schedule: Q01DX009 (ip), vehicle: saline with Tween-80 = 98 % of control | dose: 100.0 mg/kg/injection, schedule: Q04DX002 (ip), vehicle: Klucel (hydroxypropylcellulose) (HPC) 111 % of control | dose: 150.0 mg/kg/injection, schedule: Q01DX009 (ip), vehicle: saline with Tween-80 = 94 % of control | dose: 200.0 mg/kg/injection, schedule: Q04DX002 (ip), vehicle: Klucel (hydroxypropylcellulose) (HPC) 97 % of control | dose: 300.0 mg/kg/injection, schedule: Q01DX009 (ip), vehicle: saline with Tween-80 = 102 % of control | dose: 400.0 mg/kg/injection, schedule: Q04DX002 (ip), vehicle: Klucel (hydroxypropylcellulose) (HPC) 101 % of control
